In US20160090556A1, “PRODUCTS COMPRISING MALODOR REDUCTION MATERIALS” (The Procter & Gamble Company, priority 2014, published 2016):

Experiments:
[1] = Melamine formaldehyde PMC Headspace Response Ratio; settings: for Melamine formaldehyde PMC Headspace Response Ratio (Comment Code I): class code letter within Comment Code; for Comment Code: Melamine formaldehyde PMC Headspace Response Ratio: code letter I
[2] = Melamine formaldehyde PMC leakage; settings: for Melamine formaldehyde PMC leakage (Comment Code J): class code letter within Comment Code; for Comment Code: Melamine formaldehyde PMC leakage: code letter J

Structure (SMILES)	Melamine formaldehyde PMC Headspace Response Ratio (Comment Code I) [1]	Melamine formaldehyde PMC leakage (Comment Code J) [2]	Comment Code: Melamine formaldehyde PMC Headspace Response Ratio [1]	Comment Code: Melamine formaldehyde PMC leakage [2]
CCOC(=O)C1C2C=CC(C2)C1C(C)C (stereo not shown) [Material 280]	I (Melamine formaldehyde PMC Headspace Response Ratio greater than or equal to 10)	J (Melamine formaldehyde PMC leakage less than or equal to 5%)		
CCCCC1C=C(C)CC(C)O1 (stereo not shown) [Material 290]	I (Melamine formaldehyde PMC Headspace Response Ratio greater than or equal to 10)	J (Melamine formaldehyde PMC leakage less than or equal to 5%)		
CCOC(=O)C1C(CC)=CCCC1(C)C (stereo not shown) [Material 294]	I (Melamine formaldehyde PMC Headspace Response Ratio greater than or equal to 10)	J (Melamine formaldehyde PMC leakage less than or equal to 5%)		
CC(C)=C1CCC(C)(O)CC1 (stereo not shown) [Material 318]	I (Melamine formaldehyde PMC Headspace Response Ratio greater than or equal to 10)	J (Melamine formaldehyde PMC leakage less than or equal to 5%)		
CC1=CCC(C(C)C)=CC1 [Material 319]			I (Melamine formaldehyde PMC Headspace Response Ratio greater than or equal to 10)	J (Melamine formaldehyde PMC leakage less than or equal to 5%)
C=C1CCCC(C)(C)C1C=CC(C)=O (stereo not shown) [Material 324]	I (Melamine formaldehyde PMC Headspace Response Ratio greater than or equal to 10)	J (Melamine formaldehyde PMC leakage less than or equal to 5%)		
C=C1CCCC(C)(C)C1C(=O)C=CC (stereo not shown) [Material 331]	I (Melamine formaldehyde PMC Headspace Response Ratio greater than or equal to 10)	J (Melamine formaldehyde PMC leakage less than or equal to 5%)		
CCCCCCC1CCC(=O)O1 (stereo not shown) [Material 332]	I (Melamine formaldehyde PMC Headspace Response Ratio greater than or equal to 10)	J (Melamine formaldehyde PMC leakage less than or equal to 5%)		
CCOC(=O)C12CCCC1C1CCC2C1 (stereo not shown) [Material 344]	I (Melamine formaldehyde PMC Headspace Response Ratio greater than or equal to 10)	J (Melamine formaldehyde PMC leakage less than or equal to 5%)		
CC(C)CC1CC(C)(O)CCO1 (stereo not shown) [Material 350]	I (Melamine formaldehyde PMC Headspace Response Ratio greater than or equal to 10)	J (Melamine formaldehyde PMC leakage less than or equal to 5%)		
COC(=O)C1C(C)C=CCC1(C)C (stereo not shown) [Material 364]	I (Melamine formaldehyde PMC Headspace Response Ratio greater than or equal to 10)	J (Melamine formaldehyde PMC leakage less than or equal to 5%)		
CC12CCC(C1)C(C)(C)C2O (stereo not shown) [Material 366]			I (Melamine formaldehyde PMC Headspace Response Ratio greater than or equal to 10)	J (Melamine formaldehyde PMC leakage less than or equal to 5%)
CC12CCC(CC1)C(C)(C)O2 [Material 376]			I (Melamine formaldehyde PMC Headspace Response Ratio greater than or equal to 10)	J (Melamine formaldehyde PMC leakage less than or equal to 5%)
CCOC(=O)C(C)C1CCCCC1 (stereo not shown) [Material 412]			I (Melamine formaldehyde PMC Headspace Response Ratio greater than or equal to 10)	J (Melamine formaldehyde PMC leakage less than or equal to 5%)
CCC1=CCCC(C)(C)C12C=CC(C)O2 (stereo not shown) [Material 413]	I (Melamine formaldehyde PMC Headspace Response Ratio greater than or equal to 10)	J (Melamine formaldehyde PMC leakage less than or equal to 5%)		
O=CC(O)C(O)C(O)CO (stereo not shown) [Material 417]	I (Melamine formaldehyde PMC Headspace Response Ratio greater than or equal to 10)	J (Melamine formaldehyde PMC leakage less than or equal to 5%)		
C=C(C)C1CCC(C)C(=O)C1 (stereo not shown) [Material 419]			I (Melamine formaldehyde PMC Headspace Response Ratio greater than or equal to 10)	J (Melamine formaldehyde PMC leakage less than or equal to 5%)
C=C(C)C1CC=C(C)CC1 (stereo not shown) [Material 424]	I (Melamine formaldehyde PMC Headspace Response Ratio greater than or equal to 10)	J (Melamine formaldehyde PMC leakage less than or equal to 5%)		
C=CC(C)CC(=O)CC(C)C (stereo not shown) [Material 436]	I (Melamine formaldehyde PMC Headspace Response Ratio greater than or equal to 10)	J (Melamine formaldehyde PMC leakage less than or equal to 5%)		

Structure (SMILES)	Melamine formaldehyde PMC Headspace Response Ratio (Comment Code I) [1]	Melamine formaldehyde PMC leakage (Comment Code J) [2]	Comment Code: Melamine formaldehyde PMC Headspace Response Ratio [1]	Comment Code: Melamine formaldehyde PMC leakage [2]
C=CC(C)CCCC(C)(C)O (stereo not shown) [Material 437]			I (Melamine formaldehyde PMC Headspace Response Ratio greater than or equal to 10)	J (Melamine formaldehyde PMC leakage less than or equal to 5%)
CCCCCC1=C(C)CCC1=O [Material 438]			I (Melamine formaldehyde PMC Headspace Response Ratio greater than or equal to 10)	J (Melamine formaldehyde PMC leakage less than or equal to 5%)
CC1CC(=O)CC(C)(C)C1 (stereo not shown) [Material 439]			I (Melamine formaldehyde PMC Headspace Response Ratio greater than or equal to 10)	J (Melamine formaldehyde PMC leakage less than or equal to 5%)
CCCc1ccc(O)c(OC)c1 [Material 440]			I (Melamine formaldehyde PMC Headspace Response Ratio greater than or equal to 10)	J (Melamine formaldehyde PMC leakage less than or equal to 5%)
C=C(C)C1CCC(C)C(=O)C1 (stereo not shown) [Material 443]			I (Melamine formaldehyde PMC Headspace Response Ratio greater than or equal to 10)	J (Melamine formaldehyde PMC leakage less than or equal to 5%)
C=C(C)C1CCC(C)C(OC(C)=O)C1 (stereo not shown) [Material 444]	I (Melamine formaldehyde PMC Headspace Response Ratio greater than or equal to 10)	J (Melamine formaldehyde PMC leakage less than or equal to 5%)		
C=C(C)C1CCC(C)C(O)C1 (stereo not shown) [Material 445]	I (Melamine formaldehyde PMC Headspace Response Ratio greater than or equal to 10)	J (Melamine formaldehyde PMC leakage less than or equal to 5%)		
CC(=O)OC(C)(C)C1CCC(C)CC1 (stereo not shown) [Material 447]			I (Melamine formaldehyde PMC Headspace Response Ratio greater than or equal to 10)	J (Melamine formaldehyde PMC leakage less than or equal to 5%)
CC(=O)CCC1C(C)=CCCC1(C)C (stereo not shown) [Material 448]			I (Melamine formaldehyde PMC Headspace Response Ratio greater than or equal to 10)	J (Melamine formaldehyde PMC leakage less than or equal to 5%)
CCC(C)(O)CCC=C(C)C (stereo not shown) [Material 449]	I (Melamine formaldehyde PMC Headspace Response Ratio greater than or equal to 10)	J (Melamine formaldehyde PMC leakage less than or equal to 5%)		
CCCCCC1CCCC(=O)O1 (stereo not shown) [Material 464]	I (Melamine formaldehyde PMC Headspace Response Ratio greater than or equal to 10)	J (Melamine formaldehyde PMC leakage less than or equal to 5%)		
CC=CC(=O)C1C(C)C=CCC1(C)C (stereo not shown) [Material 466]	I (Melamine formaldehyde PMC Headspace Response Ratio greater than or equal to 10)	J (Melamine formaldehyde PMC leakage less than or equal to 5%)		
CC1=CCC2C(C1)C2(C)C (stereo not shown) [Material 468]	I (Melamine formaldehyde PMC Headspace Response Ratio greater than or equal to 10)	J (Melamine formaldehyde PMC leakage less than or equal to 5%)		
COC(=O)C1(C)CCC(C)CC1 (stereo not shown) [Material 477]			I (Melamine formaldehyde PMC Headspace Response Ratio greater than or equal to 10)	J (Melamine formaldehyde PMC leakage less than or equal to 5%)
CC(C)c1ccc(CO)cc1 [Material 491]	I (Melamine formaldehyde PMC Headspace Response Ratio greater than or equal to 10)	J (Melamine formaldehyde PMC leakage less than or equal to 5%)		
CC(C)(O)CCC1CCCCC1 [Material 496]			I (Melamine formaldehyde PMC Headspace Response Ratio greater than or equal to 10)	J (Melamine formaldehyde PMC leakage less than or equal to 5%)
CC(C)=CCCC(C)CCO (stereo not shown) [Material 517]			I (Melamine formaldehyde PMC Headspace Response Ratio greater than or equal to 10)	J (Melamine formaldehyde PMC leakage less than or equal to 5%)
CC(C)=CCCC(C)CC=O (stereo not shown) [Material 518]			I (Melamine formaldehyde PMC Headspace Response Ratio greater than or equal to 10)	J (Melamine formaldehyde PMC leakage less than or equal to 5%)
CC1CCC2CC1C2(C)C (stereo not shown) [Material 525]			I (Melamine formaldehyde PMC Headspace Response Ratio greater than or equal to 10)	J (Melamine formaldehyde PMC leakage less than or equal to 5%)

Some entries repeat one wording, which the source may state once for all of them.
